# Results: patent publication US20150038496A1, “METHODS AND PHARMACEUTICAL COMPOSITIONS FOR THE TREATMENT OF TH2 MEDIATED DISEASES” (INSTITUT NATIONAL DE LA SANTE ET DE LA RECHERCHE MEDICALE …, priority 2011, published 2015)
# At least one compound was matched to its structure with a doubt left.
# System: C57B1/6 mice
# Assay: OVA induced allergic asthma model, mucus production in the airways (Periodic acid Schiff staining)
# Type: in vivo
# Settings: OVA/Alum intraperitoneally days 0 and 7, intranasal OVA mixed with 0.25 mg/kg chaetocin or vehicle (DMSO) days 17 to 22, analysis day 22, PAS staining
structure (smiles),measurement,setting,value
CN1C(=O)[C@@]23C[C@]4([C@]56C[C@@]78SS[C@@](CO)(C(=O)N7[C@H]5Nc5ccccc56)N(C)C8=O)c5ccccc5N[C@@H]4N2C(=O)[C@]1(CO)SS3 [chaetocin],production of mucus in the airways (number of mucus positive cells in the lung),,significantly greater in mice treated with the allergen (OVA) and the vehicle control
same,production of mucus in the airways (number of mucus positive cells in the lung),listed as Chaetocin,less allergen-induced lung pathology
